Values from PubChem BioAssay AID1224830 (NIAID, 2016)

- Assay: 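Regulators of TLR4 signalling towards TNF-alpha in macrophage-like cells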 (primary screen)
- System: human THP-1 monocytic leukaemia cells, TNF dual-luciferase reporter clone, PMA-differentiated to macrophage-like cells
- Knock-down reagent: siRNA pool against human genes, 50 nM
- Duration: LPS for 4 h, given about 3 days after siRNA transfection
- Treatment: bacterial LPS (TLR4 ligand), 10 ng/ml
- Read-out: 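TNF firefly reporter luminescence divided by renilla, normalised to the plate median, then turned into a robust z-score for each replicate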
- Direction: TNF reporter robust z-score: higher = stronger TNF reporter response to LPS
- Hit rule: 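a well is active when its z-score exceeds 2.8 or falls below -1.5; control wells carry no call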
The deposit covers about 18,000 reagents; shown is a part drawn at random. In the full data, about 2,900 (16%) were called active. 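Calls are made per well; low scores hint the gene aids the LPS response, high scores that it dampens it.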 Unmarked entries are inactive. Repeated entries: four replicate wells of each siRNA pool.

Against NPBWR2 (neuropeptides B and W receptor 2) [SID315448991] the deposit lists TNF reporter robust z-score -1.11. NPBWR2 (neuropeptides B and W receptor 2) [SID315448991] gave TNF reporter robust z-score -0.24. Depletion of NPBWR2 (neuropeptides B and W receptor 2) [SID315448991] came out at: TNF reporter robust z-score -0.75. After knock-down of NPBWR2 (neuropeptides B and W receptor 2) [SID315448991] the results were TNF reporter robust z-score -0.82. With knock-down of TBX3 (T-box transcription factor 3) [SID315451783], the record shows TNF reporter robust z-score -0.8. Against TBX3 (T-box transcription factor 3) [SID315451783] the deposit lists TNF reporter robust z-score -0.33.

Against TBX3 (T-box transcription factor 3) [SID315451783], the values are TNF reporter robust z-score -0.91. TBX3 (T-box transcription factor 3) [SID315451783] gave TNF reporter robust z-score 0.63. For MAPK7 (mitogen-activated protein kinase 7) [SID315450822], the values are TNF reporter robust z-score 0.08. For MAPK7 (mitogen-activated protein kinase 7) [SID315450822], the values are TNF reporter robust z-score 0.25. Knock-down of MAPK7 (mitogen-activated protein kinase 7) [SID315450822] came out at: TNF reporter robust z-score -0.03. With knock-down of MAPK7 (mitogen-activated protein kinase 7) [SID315450822], the screen gave TNF reporter robust z-score 0.61.

Silencing of ZSCAN5B (zinc finger and SCAN domain containing 5B) [SID315464143] gave: TNF reporter robust z-score -0.13. With knock-down of ZSCAN5B (zinc finger and SCAN domain containing 5B) [SID315464143], the record shows TNF reporter robust z-score 0.76. For ZSCAN5B (zinc finger and SCAN domain containing 5B) [SID315464143], the values are TNF reporter robust z-score -0.52. With knock-down of ZSCAN5B (zinc finger and SCAN domain containing 5B) [SID315464143], the screen gave TNF reporter robust z-score -0.8. MST1 (macrophage stimulating 1) [SID315450048] gave TNF reporter robust z-score 0.01. Silencing of MST1 (macrophage stimulating 1) [SID315450048] came out at: TNF reporter robust z-score 0.32.

MST1 (macrophage stimulating 1) [SID315450048] showed TNF reporter robust z-score 0.57. MST1 (macrophage stimulating 1) [SID315450048] scored TNF reporter robust z-score 0.09. With knock-down of LRG1 (leucine rich alpha-2-glycoprotein 1) [SID315461394] the results were TNF reporter robust z-score 0.87. With knock-down of LRG1 (leucine rich alpha-2-glycoprotein 1) [SID315461394], the record shows TNF reporter robust z-score 1.18. For LRG1 (leucine rich alpha-2-glycoprotein 1) [SID315461394], the entry reads TNF reporter robust z-score 1.44. After knock-down of LRG1 (leucine rich alpha-2-glycoprotein 1) [SID315461394] the results were TNF reporter robust z-score 1.08.

After knock-down of EFNB3 (ephrin B3) [SID315448454], the screen gave TNF reporter robust z-score -0.35. Against EFNB3 (ephrin B3) [SID315448454], the values are TNF reporter robust z-score 2.31. Silencing of EFNB3 (ephrin B3) [SID315448454] resulted in: TNF reporter robust z-score 0.16. EFNB3 (ephrin B3) [SID315448454] showed TNF reporter robust z-score -0.96. After knock-down of CYP4F12 (cytochrome P450 family 4 subfamily F member 12) [SID315459128] the results were TNF reporter robust z-score -0.57. CYP4F12 (cytochrome P450 family 4 subfamily F member 12) [SID315459128] showed TNF reporter robust z-score -0.1.

CYP4F12 (cytochrome P450 family 4 subfamily F member 12) [SID315459128] scored TNF reporter robust z-score -0.35. CYP4F12 (cytochrome P450 family 4 subfamily F member 12) [SID315459128] gave TNF reporter robust z-score -0.21. ASCL3 (achaete-scute family bHLH transcription factor 3) [SID315458111] scored TNF reporter robust z-score 0.14. ASCL3 (achaete-scute family bHLH transcription factor 3) [SID315458111] gave TNF reporter robust z-score 0.4. ASCL3 (achaete-scute family bHLH transcription factor 3) [SID315458111] scored TNF reporter robust z-score 0.43. Depletion of ASCL3 (achaete-scute family bHLH transcription factor 3) [SID315458111] came out at: TNF reporter robust z-score -0.57.

For PTGR1 (prostaglandin reductase 1) [SID315454897] the deposit lists TNF reporter robust z-score -0.5. After knock-down of PTGR1 (prostaglandin reductase 1) [SID315454897], the screen gave TNF reporter robust z-score -0.4. Knock-down of PTGR1 (prostaglandin reductase 1) [SID315454897] came out at: TNF reporter robust z-score -0.36. Knock-down of PTGR1 (prostaglandin reductase 1) [SID315454897] gave: TNF reporter robust z-score -0.1. For OLA1 (Obg like ATPase 1) [SID315456175], the entry reads TNF reporter robust z-score 0.6. OLA1 (Obg like ATPase 1) [SID315456175] showed TNF reporter robust z-score 0.66.

OLA1 (Obg like ATPase 1) [SID315456175] showed TNF reporter robust z-score 0.46. With knock-down of OLA1 (Obg like ATPase 1) [SID315456175], the screen gave TNF reporter robust z-score 1.88. Knock-down of REM2 (RRAD and GEM like GTPase 2) [SID315462720] came out at: TNF reporter robust z-score 0.56. Depletion of REM2 (RRAD and GEM like GTPase 2) [SID315462720] gave: TNF reporter robust z-score -0.03. After knock-down of REM2 (RRAD and GEM like GTPase 2) [SID315462720] the results were TNF reporter robust z-score 0.47. After knock-down of REM2 (RRAD and GEM like GTPase 2) [SID315462720], the record shows TNF reporter robust z-score 0.71.

Sorted by “TNF reporter robust z-score” (high to low): some entries from above.
LRG1 (leucine rich alpha-2-glycoprotein 1) [SID315461394] → TNF reporter robust z-score = 1.44
LRG1 (leucine rich alpha-2-glycoprotein 1) [SID315461394] → TNF reporter robust z-score = 1.18
LRG1 (leucine rich alpha-2-glycoprotein 1) [SID315461394] → TNF reporter robust z-score = 1.08
LRG1 (leucine rich alpha-2-glycoprotein 1) [SID315461394] → TNF reporter robust z-score = 0.87
MST1 (macrophage stimulating 1) [SID315450048] → TNF reporter robust z-score = 0.57
MST1 (macrophage stimulating 1) [SID315450048] → TNF reporter robust z-score = 0.32
MST1 (macrophage stimulating 1) [SID315450048] → TNF reporter robust z-score = 0.09
